Earlier results on 3 molecules are cited in patent publication US9045714B2, “Dihydrobenzofuran derivatives as fragrance and/or flavoring materials” (Symrise AG, priority 2012, dated 2015).

The conditions of this data set: commercial musk fragrances of the prior art; cited from earlier work.
Consider `CC(=O)c1cc(C(C)(C)C)cc2c1CCC2(C)C` [Celestolide®], for which the odor description result is listed as “strong musk note”.

As for `CC(=O)c1cc2c(cc1C)C(C)(C)[C@H](C)[C@H]2C(C)C` [Traseolide®], the odor description result is “woody, musky”.

For the molecule `CC(=O)c1cc2c(cc1C)C(C)(C)C(C)C2(C)C` (stereo not drawn) [Phantolide®], the odor description entry was “musky”.
